# Publication PMC5381078, “Carboxylate derivatives of tributyltin (IV) complexes as anticancer and antileishmanial agents” (DARU Journal of Pharmaceutical Sciences, 2017)
# Tested on: HepG2 cell line
# Assay: Cytotoxicity against HepG2 cell line (SRB assay)
# Assay type: cell-based, human
# Conditions: HepG2 IC50
# Description: Cytotoxicity was further evaluated against HepG2 cell line by sulforhodamine B (SRB) colorimetric assay. Dulbecco's Modified Eagle Medium (DMEM) supplemented with 10% FBS, 100 μg/mL streptomycin sulfate, 100 IU/mL penicillin G sodium and 0.25 μg/mL amphotericin B was used to culture HepG2 cells in CO2 (5%) incubator (Panasonic, Japan MCO-18 AC-PE) at 37 °C. An aliquot of 20 μL (1% DMSO in PBS) of samples was added to 180 μL of cell culture at an assay density of 1x10^5 cells/mL in 96-well plate. The plate was incubated at 37 °C for 72 h in CO2 incubator. Final concentration of compounds/standard was 20 μg/mL. Doxorubicin and 1% v/v DMSO in PBS ere used as positive and negative controls respectively. An equivalent number of cells in twelve wells of 96-well plate were incubated for 1 h at 37 °C and labeled as day zero control. Later, cells were fixed by adding 50 μL of cold 20% w/v TCA for 1 h at 4 °C. These were washed with tap water, air dried and stained with 50 μL of 0.057% w/v SRB in 1% v/v acetic acid for 30 min at room temperature. Cells were again washed with 1% v/v acetic acid, dried overnight and 200 μL of 10 mM Tris base (pH 10) was used to solubilize the bound dye for 1 h. Absorbance was measured at 515 nm using a microplate reader. Percentage of growth inhibition was calculated as: % inhibition = 100 – [(As – Ao) / (An – Ao) × 100], where, Ao, As and An are absorbance of day zero control, samples and negative control respectively. IC50 values were determined using 3-fold dilutions of the samples.
SMILES,Fold enhancement of potency compared to Ch-458,Fold reduction of potency compared to Ch-458
"CCC[CH2][Sn]([CH2]CCC)([CH2]CCC)[O]C(=O)COc1ccc(OCC(=O)[O][Sn]([CH2]CCC)([CH2]CCC)[CH2]CCC)cc1 [Ch-409, bis(tributylstannyl) 2,2’-(1,4-phenylenebis(oxy))diacetate]",19 fold,–
"CCC[CH2][Sn]([CH2]CCC)([CH2]CCC)[O]C(=O)/C=C\C(=O)Nc1ccc(C(=O)OCC)cc1 [Ch-431, ethyl (Z)-4-(4-oxo-4-((tributylstannyl)oxy)but-2-enamido)benzoate]",–,3.46 fold
"CCC[CH2][Sn]([CH2]CCC)([CH2]CCC)[O]C(=O)CCC(=O)Nc1ccc(C(=O)[O][Sn]([CH2]CCC)([CH2]CCC)[CH2]CCC)cc1 [Ch-448, tributylstannyl 4-(4-oxo-4-((tributylstannyl)oxy)butanamido)benzoate]",–,2.18 fold
"CCC[CH2][Sn]([CH2]CCC)([CH2]CCC)[O]C(=O)c1ccccc1C(=O)Nc1cccc2ccccc12 [Ch-450, tributylstannyl 2-(naphthalene-1-ylcarbamoyl)benzoate]",–,1.77 fold
"CCC[CH2][Sn]([CH2]CCC)([CH2]CCC)[O]C(=O)/C=C\C(=O)Nc1cccc(C)c1C [Ch-459, tributylstannyl (Z)-4-((2,3-dimethylphenyl)amino)-4-oxobut-2-enoate]",2.54 fold,–
